Results of single-concentration screens

The filed quantity is “Percent Effect” (%).
The controls that fix the scale are not given in the record; negative values are as filed.
The compounds are a random part of those screened.

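Assay of Toxoplasma gondii numbers, read through their beta-galactosidase reporter with a colour substrate. Tested at 50 µM. The record gives no direction; the compounds picked for IC50 retests had high values, so higher reads as fewer parasites. Size under these conditions: about 18,000 compounds, about 170 of them at 50% or above in at least one test.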

structure,effect
O=C(NC1CC1)c1ccc(CNC2CC2)cc1,-10.37
Cc1cc(NC(N)=O)c2ncccc2c1,7.45
Brc1cccc2c1CNCCO2,-18.46
CC(CC(=O)N1CCOCC1)NC(=O)c1ccccc1 (stereo not drawn),9.276
CC(C)NC(=O)C(C)N (stereo not drawn),-4.955
CCc1c[nH]c(S(=O)(=O)CC(=O)NCc2ccco2)n1,-4.004
CCN(C)C(=O)CCN(Cc1cnn(C)c1)C(C)C,5.531
CCN(CC)S(=O)(=O)c1c(N)noc1C,12.14
CCOc1ccc(Cn2cc(Br)ccc2=O)nc1,26.15
CN(Cc1cc(C2CC2)[nH]n1)C(=O)c1c[nH]c(=O)[nH]1,12.07
O=C(c1c[nH]nc1-c1ccccc1)N1CCOCC1,5.493
CC(C)(C)Oc1ccc(C(=O)N2CC(CO)C2)cn1,7.557
COc1cccc(CN(C)C(=O)c2cccnc2)n1,13.54
CC(N)c1ccc2c(c1)CC(=O)N2C (stereo not drawn),-19.04
CSc1ccc(NC(=O)CN2CCNC(=O)CC2)cc1,-6.326
N[C@H](c1ccccc1)[C@@H](O)c1ccccc1,-28.5
CN(C)S(=O)(=O)CC(=O)NC1CCN(CC2CC2)C1 (stereo not drawn),26.23
COc1ccc(OCCCN2CCNC(=O)CC2)cc1,-8.505
O=C(OCCF)c1cccc(N2CCCNC2=O)c1,0.1809
Cc1nc(CN2CCCSCC2)oc1C,-3.309
Cc1ccnc(NCCO)c1,-8.799
[H][C@]12CNC[C@]([H])(CN(S(=O)(=O)c3ccc(F)cc3)C1)O2,5.68
CCS(=O)(=O)NC1CCN(C(=O)c2cccc(F)c2)C1 (stereo not drawn),-5.004
CCN1C[C@@H](CO)[C@H](c2nc(C3CC3)no2)C1,3.694
CNC(=O)CN(C)c1nccc(C2CCCC2)n1,9.747
N#CC1CCN(c2ncccn2)CC1,-6.708
COC1CCN(Cc2cccc(OCC(N)=O)c2)C1 (stereo not drawn),-12.13
CCn1ccnc1CN(C)CCC(=O)NC(C)C,14.34
C[C@H](CO)N(CCCC#N)Cc1ccccc1,13.43
CC(C)(CNC(=O)N1CCC1)c1ccc2c(c1)OCO2,4.779
Cc1cccc(CNC(=O)C2CCCCC(=O)N2)c1 (stereo not drawn),-7.628
NS(=O)(=O)c1cccc(Cl)c1Br,7.466
C=C(C)CN(CC)C(=O)Cn1ccccc1=O,-16.56
CS(=O)(=O)c1ccc(C2CNCCO2)cc1 (stereo not drawn),-5.7
COCCn1ccnc1CN1CCN(C)C(CO)C1 (stereo not drawn),-10.38
N#CCCCSc1nnc(N)s1,12.91
CCNCc1cccc2c1OCO2,29.73
O=C1CC(c2ccccc2Cl)NC(=O)N1 (stereo not drawn),39.06
CCC(CC)NC(=O)Nc1ccn(CCN(C)C)n1,-10.72
COC(CN)Cc1ccccc1 (stereo not drawn),24.89
CNC(C)c1ccc(-n2cncn2)cc1 (stereo not drawn),-7.265
NS(=O)(=O)CCCOC(=O)CCc1ccsc1,5.609
O=C(NCCN1C(=O)c2ccccc2S1(=O)=O)C1CC1,-5.521
CS(=O)(=O)Nc1cccc(CNC(=O)C2CCC2)c1,-4.501
CC(=O)NCCc1cn2cccc(C)c2n1,-5.214
CC(O)CN1C(=O)C=CC1=O (stereo not drawn),18.01
CCCC(=O)Nc1nnc2ccccn12,-4.954
CSCc1ncn(-c2ccccc2)n1,-17.02
Cc1ccc2[nH]c(CN3CCC(O)C3)cc(=O)c2c1 (stereo not drawn),-10.62
CC(=O)N1CCN(CCNC(=O)Nc2nncs2)CC1,-1.569

Once more, the final 5:

| structure | effect |
|---|---|
| `CC(O)CN1C(=O)C=CC1=O` (stereo not drawn) | 18.01 |
| `CCCC(=O)Nc1nnc2ccccn12` | -4.954 |
| `CSCc1ncn(-c2ccccc2)n1` | -17.02 |
| `Cc1ccc2[nH]c(CN3CCC(O)C3)cc(=O)c2c1` (stereo not drawn) | -10.62 |
| `CC(=O)N1CCN(CCNC(=O)Nc2nncs2)CC1` | -1.569 |

Measurements from “University of Dundee, Small-Polar-MMV Screening Library” (2021), ChEMBL document CHEMBL3988442.